Measured values from patent US20260221482A1, “REDOX FLOW BATTERY” (CAMBRIDGE ENTERPRISE LIMITED, priority 2023, published 2026).
Some entries share one result that the patent states for a list of compounds.

Assay: Cyclic voltammetry in N2 purged 0.1 M NaCl aqueous solutions
Assay type: physicochemical
Settings: vs SHE, 1 mM, 25° C., 20 mV s^−1
Protocol: Cyclic voltammetry experiments were carried out at 25° C. in N2 purged 0.1 M NaCl aqueous solutions with a Metrohm Eco Chemie Autolab PGSTAT12 potentiostat, working on GPES 4.9 software. A three-electrode configuration was used with a 3 mm or 1.6 mm glassy carbon working electrode, a platinum counter electrode, and RE-5B Ag/AgCl BASI reference electrode. The glassy carbon electrode was polished before each measurement using a 0.05 μm alumina-H2O slurry on a polishing cloth. CV was performed at 1 mM concentrations of the respective compound using a scan rate of 20 mV s^−1.

For `C[N+](C)(C)CCC[n+]1ccc(-c2ccc(-c3ccc(-c4cc[n+](CCC[N+](C)(C)C)cc4)s3)s2)cc1` [Compound 18], the “reversible potential, first reduction” value was −0.35 to −0.82 V.
